Experimental data: PubChem BioAssay AID652259 (Drosophila RNAi Screening Center, 2013)
The deposit covers about 22,000 reagents; below is a random part of those with a known target gene and a result. Over the whole deposit, 233 (1.1%) are marked active. 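Light values are raw, unnormalised plate reads; the ratio scores behind the reporter calls were not deposited.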 The numbers tell different reagents against one gene apart. Names joined by + are all predicted targets of the reagent. Not given: the amount of reagent, the time to read-out, the dose of the treatment.

Aim: 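Genome-wide hunt for genes that control Wingless pathway activity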 (primary screen)
System: Drosophila clone 8 imaginal disc epithelial cells
Reagents: long dsRNA against Drosophila genes
Conditions: pathway stimulated by co-transfected Wingless expression plasmid
Measured: 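Firefly luciferase from a tcf-site Wingless reporter, measured alongside co-transfected Renilla luciferase that tracks transfection; pathway stimulated by a Wingless plasmid; the firefly-to-Renilla ratio is not deposited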
Scale: firefly reporter light: higher = more Wg reporter light, before normalisation; Renilla control light: higher = more transfected or surviving cells
Active means: 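Strong candidates differ from their plate mean by at least two out of four per-plate statistical tests; weak candidates meet just one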
Meaning of the calls: active = candidate regulator (raises or lowers reporter); inactive = not a candidate

no.	target	dsRNA no.	reporter change call, replicate 1	firefly reporter light, replicate 1	firefly reporter light, replicate 2	Renilla control light, replicate 1	Renilla control light, replicate 2	outcome
1	Nnf1b	1		7.72e5	7.80e5	3.50e5	3.74e5	inactive
2	exu	1		13752		3332		inactive
3	eIF3e	1		12128		1820		inactive
4	Taf10b + Taf10	1		5170	7143	876	1520	inactive
5	Ir52d	1		5216		2225		inactive
6	Gr94a	1		3137		1334		inactive
7	pbl	1		5895		2051		inactive
8	scaf6	1		6464		2775		inactive
9	scaf6	2		6256		2950		inactive
10	scaf6	3		4995		1094		inactive
11	Tsp42Ee	1		2354	6489	995	3089	inactive
12	CG13540	1		1596	5815	340	2406	inactive
13	CG17666	1		4811		2128		inactive
14	CG13589	1		3269	6948	1281	3260	inactive
15	Ddr	1		11751		6624		inactive
16	Ddr	2		13888		6368		inactive
17	Ddr	3		2168	7367	409	2976	inactive
18	Ddr	4		3381	8080	1019	3283	inactive
19	Ddr	5		3659	9916	509	4805	inactive
20	Ddr	6		5.51e5	6.49e5	2.31e5	2.84e5	inactive
21	Socs44A	1		3804	7088	710	2603	inactive
22	CG6805	1		16100		6979		inactive
23	dpr14	1		2320	5738	1088	2581	inactive
24	CG16782	1		21587		14145		inactive
25	DAT	1		7277		2803		inactive
26	CG14370	1		16464		3465		inactive
27	Jhbp6	1		11300		4300		inactive
28	PH4alphaNE2	1		4877		2794		inactive
29	CG14174	1		4121		1883		inactive
30	CG17287	1		5012		2253		inactive
31	CG15651	1		1927	5040	629	1852	inactive
32	CG43707	1		3491	11623	1408	4018	inactive
33	CG43707	2		6.11e5	4.64e5	2.64e5	2.53e5	inactive
34	CG43707	3		4.52e5	5.04e5	1.42e5	1.01e5	inactive
35	Ugt303B1	1		24544		16582		inactive
36	bark	1		3216	6501	938	2933	inactive
37	CG1142	1		22540		5661		inactive
38	CG17267	1		14080		3560		inactive
39	mRpL51	1		8544		1456		inactive
40	wtrw	1		4233		1381		inactive
41	wtrw	2		13296		3265		inactive
42	CG13367	1		28456		15917		inactive
43	CG13367	2		32064		16912		inactive
44	CG13318	1		18617		3901		inactive
45	Qtzl	1		22152		12323		inactive
46	tra	1		7814		3098		inactive
47	Mlc2	1		2982	8172	1340	2388	inactive
48	RNASEK	1		3.85e5	3.09e5	1.81e5	1.30e5	inactive
49	CG17821	1		5442		1925		inactive
50	Chs2	1		8537		2788		inactive
51	comm3	1		10186		3469		inactive
52	comm3	2		6944		2736		inactive
53	comm3	3		7958		3186		inactive
54	Uxt	1		3488	5969	1120	2960	inactive
55	cnc	1		21200		12816		inactive
56	cnc	2		3346	7297	1299	2352	inactive
57	cnc	3		15443		14648		inactive
58	cnc	4		21924		13664		inactive
59	sqd	1		24017		2361		inactive
60	sqd	2		7780		2202		inactive
61	sqd	3		5.16e5	5.03e5	2.66e5	2.39e5	inactive
62	CG17027	1		8080		3232		inactive
63	CG7215 + Prx5	1		18065		4016		inactive
64	CG7215 + Prx5	2		3588	8517	1376	1817	inactive
65	CG15754	1		15223		7687		inactive
66	CG18662	1		3483	8513	832	3600	inactive
67	Usp1	1		2404	5802	1178	3216	inactive
68	Ir48c	1		4437		1617		inactive
69	Eig71Ed	1		8193		3723		inactive
70	Ir93a	1		2850	6178	1429	2016	inactive
71	Ir93a	2		18950		3673		inactive
72	Sulf1	1		3456		1673		inactive
73	Sulf1	2		14230		3773		inactive
74	COX7B	1		5670		2314		inactive
75	CG13868	1		7520		2267		inactive
76	CG43902	1		31434		14250		inactive
77	CG43902	2		33379		7907		inactive
78	Aos1	1	Wg reporter activity raised	16916		3152		inactive
79	Agpat2	1		6423		2644		inactive
80	CG10628	1		2696	3396	585	1480	inactive
81	CG10927	1		19434		5185		inactive
82	TwdlT	1		8837		3184		inactive
83	TwdlT	2		3.95e5	4.00e5	2.24e5	1.94e5	inactive
84	Mrgn1	1		2176	6587	800	2241	inactive
85	Ilp4	1		7115		2881		inactive
86	tfc	1		2933		1850		inactive
87	tfc	2		2853		1216		inactive
88	tfc	3		15370		4138		inactive
89	tfc	4		8.53e5	7.97e5	4.29e5	3.64e5	inactive
90	CG9380	1		3094	7179	614	2954	inactive
91	WDR79	1		7485		3600		inactive
92	Apoltp	1		6528		2105		inactive
93	CG11737	1		12134		2113		inactive

Not a retest: entries from further up.
no.	target	dsRNA no.	reporter change call, replicate 1	firefly reporter light, replicate 1	firefly reporter light, replicate 2	Renilla control light, replicate 1	Renilla control light, replicate 2	outcome
75	CG13868	1		7520		2267		inactive
76	CG43902	1		31434		14250		inactive
77	CG43902	2		33379		7907		inactive
78	Aos1	1	Wg reporter activity raised	16916		3152		inactive
